Results are given in words; binding and its absence hold for the method and conditions named. Binding seen in cells or lysates may run through a third protein. These calls come from enrichment with a bait or labelling near it, and not all partners need be listed.
T1: POGZ (endogenous, mouse ESCs) (mouse (endogenous in mESCs R1)) (UniProt Q8BZH4)
T1 sequence: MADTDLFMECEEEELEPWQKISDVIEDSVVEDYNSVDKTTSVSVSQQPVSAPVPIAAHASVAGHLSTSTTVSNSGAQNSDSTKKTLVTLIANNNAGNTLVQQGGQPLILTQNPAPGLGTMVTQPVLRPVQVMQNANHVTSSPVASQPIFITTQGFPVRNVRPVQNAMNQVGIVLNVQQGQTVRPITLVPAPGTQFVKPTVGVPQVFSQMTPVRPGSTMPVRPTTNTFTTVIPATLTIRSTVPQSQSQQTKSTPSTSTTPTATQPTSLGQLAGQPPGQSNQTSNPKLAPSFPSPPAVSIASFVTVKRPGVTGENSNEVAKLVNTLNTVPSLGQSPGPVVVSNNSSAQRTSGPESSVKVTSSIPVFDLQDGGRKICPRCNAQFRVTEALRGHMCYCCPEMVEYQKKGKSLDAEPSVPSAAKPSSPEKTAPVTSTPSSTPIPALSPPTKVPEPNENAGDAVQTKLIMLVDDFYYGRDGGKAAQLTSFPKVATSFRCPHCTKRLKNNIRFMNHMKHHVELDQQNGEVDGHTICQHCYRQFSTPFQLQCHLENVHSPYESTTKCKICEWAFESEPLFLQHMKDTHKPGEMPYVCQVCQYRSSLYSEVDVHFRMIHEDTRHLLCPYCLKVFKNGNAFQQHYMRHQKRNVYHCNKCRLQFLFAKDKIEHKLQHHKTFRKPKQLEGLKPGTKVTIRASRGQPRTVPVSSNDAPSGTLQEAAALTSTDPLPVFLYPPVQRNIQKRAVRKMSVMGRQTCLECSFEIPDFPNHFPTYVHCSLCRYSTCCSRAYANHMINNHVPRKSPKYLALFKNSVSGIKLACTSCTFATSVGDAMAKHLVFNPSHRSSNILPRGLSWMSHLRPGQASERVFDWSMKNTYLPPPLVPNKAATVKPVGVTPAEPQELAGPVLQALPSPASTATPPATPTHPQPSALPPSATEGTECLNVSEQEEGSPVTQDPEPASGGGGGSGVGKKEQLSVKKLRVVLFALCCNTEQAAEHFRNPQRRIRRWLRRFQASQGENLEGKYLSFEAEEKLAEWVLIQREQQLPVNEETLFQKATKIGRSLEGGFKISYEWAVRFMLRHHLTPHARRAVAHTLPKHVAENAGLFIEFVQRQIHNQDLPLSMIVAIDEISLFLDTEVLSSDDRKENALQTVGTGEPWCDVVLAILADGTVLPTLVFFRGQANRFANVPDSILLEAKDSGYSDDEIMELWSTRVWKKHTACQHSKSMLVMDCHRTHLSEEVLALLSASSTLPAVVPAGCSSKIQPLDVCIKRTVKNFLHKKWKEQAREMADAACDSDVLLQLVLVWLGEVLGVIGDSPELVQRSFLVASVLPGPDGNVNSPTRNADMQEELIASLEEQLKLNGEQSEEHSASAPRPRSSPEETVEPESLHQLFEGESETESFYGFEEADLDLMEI

Protein sequences, listed by entry. Tags and fused reporters are not part of them.
UniProt P97496: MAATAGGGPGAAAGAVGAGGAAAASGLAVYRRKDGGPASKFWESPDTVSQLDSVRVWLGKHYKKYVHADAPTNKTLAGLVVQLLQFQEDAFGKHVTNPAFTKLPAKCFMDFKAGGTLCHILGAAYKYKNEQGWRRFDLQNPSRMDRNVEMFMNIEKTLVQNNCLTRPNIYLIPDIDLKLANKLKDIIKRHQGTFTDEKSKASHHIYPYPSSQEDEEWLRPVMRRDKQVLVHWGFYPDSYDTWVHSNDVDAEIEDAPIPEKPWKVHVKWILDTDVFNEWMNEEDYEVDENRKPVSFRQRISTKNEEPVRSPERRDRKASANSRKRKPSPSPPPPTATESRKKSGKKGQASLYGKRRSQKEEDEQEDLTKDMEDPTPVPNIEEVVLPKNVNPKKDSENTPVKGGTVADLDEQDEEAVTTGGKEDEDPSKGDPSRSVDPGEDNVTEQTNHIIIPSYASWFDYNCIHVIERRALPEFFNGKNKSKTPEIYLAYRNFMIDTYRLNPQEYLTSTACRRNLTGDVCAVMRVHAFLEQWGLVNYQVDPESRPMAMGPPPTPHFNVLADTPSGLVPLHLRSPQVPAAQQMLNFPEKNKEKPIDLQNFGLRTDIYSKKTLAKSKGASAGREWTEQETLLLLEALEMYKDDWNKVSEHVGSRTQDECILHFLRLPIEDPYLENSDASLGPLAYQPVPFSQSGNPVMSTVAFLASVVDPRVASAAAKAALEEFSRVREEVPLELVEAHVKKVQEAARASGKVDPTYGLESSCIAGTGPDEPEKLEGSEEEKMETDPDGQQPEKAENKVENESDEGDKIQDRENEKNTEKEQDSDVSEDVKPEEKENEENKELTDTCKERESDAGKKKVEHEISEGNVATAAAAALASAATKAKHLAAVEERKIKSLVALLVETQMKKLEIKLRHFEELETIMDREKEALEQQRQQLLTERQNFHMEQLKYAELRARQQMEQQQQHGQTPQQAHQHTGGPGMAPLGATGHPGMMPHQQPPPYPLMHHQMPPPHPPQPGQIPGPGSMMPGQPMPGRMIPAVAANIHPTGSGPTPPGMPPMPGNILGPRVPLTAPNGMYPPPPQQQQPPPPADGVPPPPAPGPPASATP
UniProt Q61466: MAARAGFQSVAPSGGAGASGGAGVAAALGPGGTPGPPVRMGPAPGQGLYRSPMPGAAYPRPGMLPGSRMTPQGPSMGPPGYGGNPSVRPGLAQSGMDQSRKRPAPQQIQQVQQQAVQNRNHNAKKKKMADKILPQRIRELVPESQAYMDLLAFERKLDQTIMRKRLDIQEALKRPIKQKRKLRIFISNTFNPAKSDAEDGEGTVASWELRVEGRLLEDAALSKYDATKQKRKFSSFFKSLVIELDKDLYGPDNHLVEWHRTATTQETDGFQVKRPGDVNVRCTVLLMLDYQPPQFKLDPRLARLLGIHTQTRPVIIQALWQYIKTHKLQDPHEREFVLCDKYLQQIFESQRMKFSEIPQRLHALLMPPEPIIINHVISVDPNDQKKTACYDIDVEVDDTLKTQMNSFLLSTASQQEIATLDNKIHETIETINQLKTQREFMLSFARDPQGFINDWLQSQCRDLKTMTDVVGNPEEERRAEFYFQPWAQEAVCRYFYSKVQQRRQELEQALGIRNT


Target: T1, POGZ (endogenous, mouse ESCs) (mouse (endogenous in mESCs R1))
Assay: affinity purification with mass spectrometry; IP from ESC lysate with IgG, POGZ antibody or FLAG antibody on Dynabeads Protein G; whole SDS-PAGE lanes cut, trypsin digest, AB SCIEX Triple TOF 5600 plus; repeated three times

binding | Molecule
binds | SMARCC1/BAF155 (endogenous, mouse ESCs) (from UniProt P97496 1-1104)
binds | SMARCD1/BAF60a (from UniProt Q61466 1-515)
binds | Nono (protein, UniProt Q99K48 1-473) MQSNKAFNLEKQNHTPRKHHQHHHQQHHQQQQQQQQQQPPPPIPANGQQASSQNEGLTIDLKNFRKPGEKTFTQRSRLFVGNLPPDITEEEMRKLFEKYGKAGEVFIHKDKGFGFIRLETRTLAEIAKVELDNMPLRGKQLRVRFACHSASLTVRNLPQYVSNELLEEAFSVFGQVERAVVIVDDRGRPSGKGIVEFSGKPAARKALDRCSEGSFLLTTFPRPVTVEPMDQLDDEEGLPEKLVIKNQQFHKEREQPPRFAQPGSFEYEYAMRWKALIEMEKQQQDQVDRNIKEAREKLEMEMEAARHEHQVMLMRQDLMRRQEELRRMEELHNQEVQKRKQLELRQEEERRRREEEMRRQQEEMMRRQQEGFKGTFPDAREQEIRMGQMAMGGAMGINNRGAMPPAPVPPGTPAPPGPATMMPDGTLGLTPPTTERFGQAATMEGIGAIGGTPPAFNRPAPGAEFAPNKRRRY
binds | Sfpq (protein, UniProt Q8VIJ6 1-699) MSRDRFRSRGGGGGGFHRRGGGGGRGGLHDFRSPPPGMGLNQNRGPMGPGPGGPKPPLPPPPPHQQQQQPPPQQPPPQQPPPHQQPPPHQPPHQQPPPPPQESKPVVPQGPGSAPGVSSAPPPAVSAPPANPPTTGAPPGPGPTPTPPPAVPSTAPGPPPPSTPSSGVSTTPPQTGGPPPPPAGGAGPGPKPGPGPGGPKGGKMPGGPKPGGGPGMGAPGGHPKPPHRGGGEPRGGRQHHAPYHQQHHQGPPPGGPGPRTEEKISDSEGFKANLSLLRRPGEKTYTQRCRLFVGNLPADITEDEFKRLFAKYGEPGEVFINKGKGFGFIKLESRALAEIAKAELDDTPMRGRQLRVRFATHAAALSVRNLSPYVSNELLEEAFSQFGPIERAVVIVDDRGRSTGKGIVEFASKPAARKAFERCSEGVFLLTTTPRPVIVEPLEQLDDEDGLPEKLAQKNPMYQKERETPPRFAQHGTFEYEYSQRWKSLDEMEKQQREQVEKNMKDAKDKLESEMEDAYHEHQANLLRQDLMRRQEELRRMEELHSQEMQKRKEMQLRQEEERRRREEEMMIRQREMEEQMRRQREESYSRMGYMDPRERDMRMGGGGTMNMGDPYGSGGQKFPPLGGGGGIGYEANPGVPPATMSGSMMGSDMRTERFGQGGAGPVGGQGPRGMGPGTPAGYGRGREEYEGPNKKPRF
binds | Mybbp1a (protein, UniProt Q7TPV4 1-1344) MAEMKSPTKAEPATPAEAAQSDRHSLLEHSREFLDFFWDIAKPDQETRLRATEKLLEYLRTRPNDSEMKYALKRLITGLGVGREAARPCYSLALAQLLQSFEDIPLCDILDQIQEKYSLQAMNKAMMRPSLFANLFGVLALFQSGRLVKDKEALMKSVQLLKILSQHPNHLQGQPIKALVDILSEVPESMFQEILPKVLKGNMKVILRSPKYLELFLLAKQRVPTKLESLMGSVDLFSEDNIPSLVNILKVAANSVKKEHKLPNVALDLLRLALKESRFELFWKKVLEEGLLKNPSWTSSYMCFRLLGASLPLLSEEQLQLVMRGDLIRHFGENMVISKPQNLFKIIPEISTYVGTFLEGCQDDPKRQLTMMVAFTTITNQGLPVMPTFWRVTRFLNAEALQSYVAWLRDMFLQPDLNSLVDFSTANQKRAQDASLNVPERAVFRLRKWIIHRLVSLVDHLHLEKDEAVVEQIARFCLFHAFFKTKKATPQIPETKQHFSFPLDDRNRGVFVSAFFSLLQTLSVKFRQTPDLAENGKPWTYRLVQLADMLLNHNRNVTSVTSLTTQQRQAWDQMMSTLKELEARSSETRAIAFQHLLLLVGLHIFKSPAESCDVLGDIQTCIKKSMEQNPRRSRSRAKASQEPVWVEVMVEILLSLLAQPSNLMRQVVRSVFGHICPHLTPRCLQLILAVLSPVTNEDEDDNVVVTDDADEKQLQHGEDEDSDNEDNKNSESDMDSEDGEESEEEDRDKDVDPGFRQQLMEVLKAGNALGGVDNEEEEELGDEAMMALDQNLASLFKEQKMRIQARNEEKNKLQKEKKLRRDFQIRALDLIEVLVTKQPEHPLILELLEPLLNVIQHSMRSKGSTKQEQDLLHKTARIFMHHLCRARRYCHEVGPCAEALHAQVERLVQQAGSQADASVALYYFNASLYLLRVLKGNTNKRHQDGHKLHGADTEDSEDQAANCLDLDFVTRVYSASLESLLTKRNSSLTVPMFLSLFSRYPVICKNLLPVLAQHVAGPSRPRHQAQACLMLQKTLSARELRVCFEDPEWEQLITQLLGKATQTLQTLGEAQSKGEHQKELSILELLNTLLRTVNHEKLSVDLTAPLGVLQSKQQKLQQSLQQGNHSSGSNRLYDLYWQAMRMLGVQRPKSEKKNAKDIPSDTQSPVSTKRKKKGFLPETKKRKKLKSEGTTPEKNAASQQDAVTEGAMPAATGKDQPPSTGKKKRKRVKASTPSQVNGITGAKSPAPSNPTLSPSTPAKTPKLQKKKEKLSQVNGATPVSPIEPESKKHHQEALSTKEVIRKSPHPQSALPKKRARLSLVSRSPSLLQSGVKKRRVASRRVQTP

— paper PMC9161502
